Assay results published in patent US20160039936A1, “FIBROBLAST GROWTH FACTOR RECEPTOR INHIBITION FOR THE TREATMENT OF DISEASE” (UNIVERSITY OF MIAMI, priority 2011, published 2016).
These are yes or no findings as the source states them, for the method shown. Some entries that bind do so weakly or less than the wild type.

The chains behind the UniProt entries cited, without tags or fusion partners. Residues count along the entry.
UniProt Q498D6, residues 17-800: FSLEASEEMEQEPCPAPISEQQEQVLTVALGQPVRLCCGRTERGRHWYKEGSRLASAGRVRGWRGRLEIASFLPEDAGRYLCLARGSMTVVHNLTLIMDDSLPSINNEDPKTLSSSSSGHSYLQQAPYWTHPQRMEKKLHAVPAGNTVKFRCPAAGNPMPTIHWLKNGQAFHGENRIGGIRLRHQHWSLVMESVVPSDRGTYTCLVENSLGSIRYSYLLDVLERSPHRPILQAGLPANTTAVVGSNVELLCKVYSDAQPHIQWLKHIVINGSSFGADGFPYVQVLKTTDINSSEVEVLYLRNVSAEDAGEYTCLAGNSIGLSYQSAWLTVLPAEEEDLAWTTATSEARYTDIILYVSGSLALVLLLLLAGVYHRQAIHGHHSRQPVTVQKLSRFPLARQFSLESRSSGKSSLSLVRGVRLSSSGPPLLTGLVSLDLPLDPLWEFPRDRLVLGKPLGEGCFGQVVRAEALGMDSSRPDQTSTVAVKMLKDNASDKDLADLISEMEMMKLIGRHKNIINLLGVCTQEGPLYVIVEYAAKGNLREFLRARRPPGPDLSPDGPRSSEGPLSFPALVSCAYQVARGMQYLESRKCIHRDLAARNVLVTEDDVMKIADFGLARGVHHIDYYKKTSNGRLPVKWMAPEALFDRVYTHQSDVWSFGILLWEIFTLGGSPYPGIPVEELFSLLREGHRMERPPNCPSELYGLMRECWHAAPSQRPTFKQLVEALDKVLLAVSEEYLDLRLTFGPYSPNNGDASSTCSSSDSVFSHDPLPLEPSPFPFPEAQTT

Assays:
[1] = target: T1, endogenous PLCγ of neonatal rat ventricular myocytes (NRVM) (rat) (UniProt P10686); experiment: anti-PLCγ immunoprecipitation from NRVM, immunoblot for FGFR4
T1 sequence (looked up): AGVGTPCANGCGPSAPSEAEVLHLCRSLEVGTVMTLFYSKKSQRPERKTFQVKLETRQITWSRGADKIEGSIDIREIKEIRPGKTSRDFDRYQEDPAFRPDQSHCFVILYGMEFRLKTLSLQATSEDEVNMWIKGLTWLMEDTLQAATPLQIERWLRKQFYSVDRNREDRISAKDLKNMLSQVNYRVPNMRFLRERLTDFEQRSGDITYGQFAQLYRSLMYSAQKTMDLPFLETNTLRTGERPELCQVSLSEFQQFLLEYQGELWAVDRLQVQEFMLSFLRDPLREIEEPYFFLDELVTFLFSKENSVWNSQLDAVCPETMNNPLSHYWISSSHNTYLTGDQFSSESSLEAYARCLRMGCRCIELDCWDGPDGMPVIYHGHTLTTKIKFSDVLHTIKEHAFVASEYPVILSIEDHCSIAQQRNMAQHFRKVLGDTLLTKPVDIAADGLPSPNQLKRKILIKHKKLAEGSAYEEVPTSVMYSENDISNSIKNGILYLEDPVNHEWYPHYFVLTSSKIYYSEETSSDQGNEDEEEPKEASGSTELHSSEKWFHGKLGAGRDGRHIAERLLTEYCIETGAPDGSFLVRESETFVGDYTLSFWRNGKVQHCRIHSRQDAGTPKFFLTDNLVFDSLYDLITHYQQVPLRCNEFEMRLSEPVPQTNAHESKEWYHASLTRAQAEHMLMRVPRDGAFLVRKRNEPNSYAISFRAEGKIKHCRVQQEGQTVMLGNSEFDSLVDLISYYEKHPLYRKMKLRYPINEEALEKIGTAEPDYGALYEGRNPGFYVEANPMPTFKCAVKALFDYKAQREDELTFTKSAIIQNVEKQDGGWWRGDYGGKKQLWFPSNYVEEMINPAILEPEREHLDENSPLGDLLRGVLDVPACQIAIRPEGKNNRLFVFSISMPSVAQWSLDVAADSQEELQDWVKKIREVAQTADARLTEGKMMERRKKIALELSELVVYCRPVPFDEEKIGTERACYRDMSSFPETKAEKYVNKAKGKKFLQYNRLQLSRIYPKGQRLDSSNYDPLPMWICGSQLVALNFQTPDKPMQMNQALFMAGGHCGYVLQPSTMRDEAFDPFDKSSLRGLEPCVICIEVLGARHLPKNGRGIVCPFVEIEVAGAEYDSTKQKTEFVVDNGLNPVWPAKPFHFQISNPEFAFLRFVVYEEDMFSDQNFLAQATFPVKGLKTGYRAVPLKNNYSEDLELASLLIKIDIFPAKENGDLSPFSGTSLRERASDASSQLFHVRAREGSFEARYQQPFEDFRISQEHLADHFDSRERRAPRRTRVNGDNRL

[2] = target: T1, endogenous PLCγ of neonatal rat ventricular myocytes (NRVM) (rat); experiment: immunoprecipitation of endogenous PLCγ from NRVM treated with FGF23 for 30 minutes, immunoblot for FGFR4

Substance: endogenous FGFR4 of neonatal rat ventricular myocytes (NRVM) (from UniProt Q498D6 17-800) (receptor)
- binding [1]: binds
- binding [2]: binds
